Measured values: US20240083853A1, “HSD17B13 INHIBITORS AND USES THEREOF” (FL2022-001, Inc., priority 2020, published 2024)
The match of structure and compound is tentative.

Protein sequences, listed by entry. Tags and fused reporters are not part of them. Residues count along the entry.
UniProt Q7Z5P4, 20-300 limits assumed: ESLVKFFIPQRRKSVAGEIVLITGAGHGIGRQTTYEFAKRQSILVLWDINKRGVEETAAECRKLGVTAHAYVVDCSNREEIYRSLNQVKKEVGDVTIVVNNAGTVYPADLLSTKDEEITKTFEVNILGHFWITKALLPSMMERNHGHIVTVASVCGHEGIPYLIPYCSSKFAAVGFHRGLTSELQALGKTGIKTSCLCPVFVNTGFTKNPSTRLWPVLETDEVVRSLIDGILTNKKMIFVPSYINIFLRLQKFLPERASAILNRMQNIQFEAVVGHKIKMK

Target: Recombinant human HSD17B13 enzyme (Homo sapiens, UniProt Q7Z5P4)
Assay: HSD17b13 NAD(P)H-Glo biochemical assay
Conditions: read-out: HSD17β13 IC50; 50 uM estradiol, 1 mM NAD+, NAD(P)H-Glo luminescence
Procedure: Example B-1: HSD17b13 NAD(P)H-Glo Biochemical Assay
Recombinant human HSD17B13 enzyme. Substrate: estradiol (Sigma β-Estradiol E8875), 100 mM in DMSO. Cofactor: NAD+ Grade I free acid (Sigma 10127965001), 20 mM in H2O. Assay buffer final concentration: 20 mM Tris pH7.4 with 0.002% Tween-20 and 0.02% BSA. Assay performed in 384 well solid bottom plate (Corning 3570). Enzymatic activity detected by NAD(P)H-Glo™ Detection System (Promega G9062).
Inhibitor compounds were serially diluted in DMSO and then further diluted in assay buffer to a 10× concentration consisting of 1% DMSO.
HSD17b13 enzyme was diluted in 1× assay buffer to the desired enzyme concentration based on the specific activity of the enzyme lot. 20 uL of diluted enzyme was added to each well along with 2.5 uL of 10× inhibitor solution. Assay plate was incubated at RT for 20 minutes, and then 2.5 uL of a 10× substrate/cofactor mix was added to each well for a final concentration of 50 uM estradiol and 1 mM NAD+. Assay plate was incubated at 37° C. for 3 hours. NAD(P)H-Glo™ Detection System reagents were prepared according to manufacturer's specifications, and 25 uL was added to each well. After incubating for 1 hour at RT, luminescence was measured.

IC50: 100 to 1000 nM
Structure (SMILES): Oc1c(F)cc2cnn(-c3ccc(N4CC5(COC5)C4)cc3)c2c1F
